Part of at least one peptide drawing is inferred or uncertain, most often the ends.
What was measured:
[1] = tested on: L1210 (leukemia) tumor cells; assay: Survival of BDF1 mice inoculated with L1210 tumor cells, enkephalins s.c. daily; format: in vivo, mouse; details: for cumulative dead: 30 mice
mouse lymphocyte = assay: Phytohemagglutinin (PHA) stimulated mouse lymphocyte blastogenesis; format: cell-based

CSCC[C@H](NC(=O)[C@H](Cc1ccccc1)NC(=O)CNC(=O)CNC(=O)[C@@H](N)Cc1ccc(O)cc1)C(=O)O [Methionine-Enkephalin, Tyr--Gly--Gly--Phe--Met]
survival time ([1]; 1×10^2 cells, 10 mg/kg s.c., controls 20 days): 20 days | mice died on the day ([1]; 1×10^2 cells, 10 mg/kg s.c., day 15): 3 died | mice died on the day ([1]; 1×10^2 cells, 10 mg/kg s.c., day 16): 2 died | mice died on the day ([1]; 1×10^2 cells, 10 mg/kg s.c., day 17): 2 died | mice died on the day ([1]; 1×10^2 cells, 10 mg/kg s.c., day 18): 0 died | mice died on the day ([1]; 1×10^2 cells, 10 mg/kg s.c., day 19): 1 died | mice died on the day ([1]; 1×10^2 cells, 10 mg/kg s.c., day 20): 1 died | mice died on the day ([1]; 1×10^2 cells, 10 mg/kg s.c., day 21): 0 died | total died ([1]; 1×10^2 cells, 10 mg/kg s.c., ten mice per group, 10 mg/kg): 9 died | total died ([1]; 1×10^2 cells, 10 mg/kg s.c., ten mice per group, listed as methionine-enkephalin, 10 mg/kg): 9 out of 10 | total died ([1]; 1×10^2 cells, 10 mg/kg s.c., three runs pooled, controls 27/30): 27/30 | cumulative died ([1]; 1×10^2 cells, 10 mg/kg s.c., three runs pooled, day 14): 1/30 | cumulative died ([1]; 1×10^2 cells, 10 mg/kg s.c., three runs pooled, day 15): 10/30 | cumulative died ([1]; 1×10^2 cells, 10 mg/kg s.c., three runs pooled, day 16): 18/30 | cumulative died ([1]; 1×10^2 cells, 10 mg/kg s.c., three runs pooled, day 17): 25/30 | cumulative died ([1]; 1×10^2 cells, 10 mg/kg s.c., three runs pooled, day 18): 25/30 | cumulative died ([1]; 1×10^2 cells, 10 mg/kg s.c., three runs pooled, day 19): 26/30 | cumulative died ([1]; 1×10^2 cells, 10 mg/kg s.c., three runs pooled, day 20): 27/30 | cumulative died ([1]; 1×10^2 cells, 10 mg/kg s.c., three runs pooled, day 21): 27/30 | cumulative dead ([1]; 1×10^2 cells, 30 mg/kg, day 13): 1 | cumulative dead ([1]; 1×10^2 cells, 30 mg/kg, day 14): 4 | cumulative dead ([1]; 1×10^2 cells, 30 mg/kg, day 15): 15 | cumulative dead ([1]; 1×10^2 cells, 30 mg/kg, day 16): 20 | cumulative dead ([1]; 1×10^2 cells, 30 mg/kg, day 17): 22 | cumulative dead ([1]; 1×10^2 cells, 30 mg/kg, day 18): 23 | cumulative dead ([1]; 1×10^2 cells, 30 mg/kg, day 22): 24 | ED50 (day of death) ([1]; 1×10^2 cells, 30 mg/kg, controls 15 ± 0.4 days): 18 ± 1.2 days | total Dead ([1]; 1×10^2 cells, 30 mg/kg, controls 44/49): 24/30 | total died ([1]; 1×10^3 cells, 10 mg/kg s.c.): 10/10 | survival time ([1]; 1×10^3 cells, 10 mg/kg s.c., controls 16 days): 18 days | mice died on the day ([1]; 1×10^3 cells, 10 mg/kg s.c., day 13): 0 died | mice died on the day ([1]; 1×10^3 cells, 10 mg/kg s.c., day 14): 4 died | mice died on the day ([1]; 1×10^3 cells, 10 mg/kg s.c., day 15): 3 died | mice died on the day ([1]; 1×10^3 cells, 10 mg/kg s.c., day 16): 1 died | mice died on the day ([1]; 1×10^3 cells, 10 mg/kg s.c., day 17): 1 died | mice died on the day ([1]; 1×10^3 cells, 10 mg/kg s.c., day 18): 1 died | survival times versus controls ([1]; 1×10^4 cells, 10 mg/kg s.c.): no differences in survival times | total died ([1]; 1×10^4 cells, 10 mg/kg s.c.): 9/10 | mice died on the day ([1]; 1×10^4 cells, 10 mg/kg s.c., day 11): 6 died | mice died on the day ([1]; 1×10^4 cells, 10 mg/kg s.c., day 12): 1 died | mice died on the day ([1]; 1×10^4 cells, 10 mg/kg s.c., day 13): 2 died | mice surviving at day 21 ([1]; 1×10^4 cells, 30 mg/kg s.c. daily): 11 of 30 | median day of death (day by which half died) ([1]; 1×10^4 cells, 30 mg/kg s.c. daily, controls fourteenth day): seventeenth day | # dead/# tested, Total ([1]; 1×10^4 cells, 30 mg/kg s.c. daily, pooled three experiments, controls 22/25): 19/30 | # dead/# tested ([1]; 1×10^4 cells, 30 mg/kg s.c. daily, pooled three experiments, day 14): 7/30 | # dead/# tested ([1]; 1×10^4 cells, 30 mg/kg s.c. daily, pooled three experiments, day 15): 8/30 | # dead/# tested ([1]; 1×10^4 cells, 30 mg/kg s.c. daily, pooled three experiments, day 16): 12/30 | # dead/# tested ([1]; 1×10^4 cells, 30 mg/kg s.c. daily, pooled three experiments, day 17): 15/30 | # dead/# tested ([1]; 1×10^4 cells, 30 mg/kg s.c. daily, pooled three experiments, day 18): 18/30 | # dead/# tested ([1]; 1×10^4 cells, 30 mg/kg s.c. daily, pooled three experiments, day 19): 18/30 | # dead/# tested ([1]; 1×10^4 cells, 30 mg/kg s.c. daily, pooled three experiments, day 20): 19/30 | # dead/# tested ([1]; 1×10^4 cells, 30 mg/kg s.c. daily, pooled three experiments, day 21): 19/30 | Lymphocyte Blastogenesis (mean counts/minute ± s.e.) (mouse lymphocyte; 1 mg/ml, PHA (1:100), controls 1458 ± 90): 4393 ± 664 counts/minute | Lymphocyte Blastogenesis (mean counts/minute ± s.e.) (mouse lymphocyte; 1 mg/ml, PHA (1:250), controls 5840 ± 553): 11807 ± 3526 counts/minute | Lymphocyte Blastogenesis (mean counts/minute ± s.e.) (mouse lymphocyte; 1 mg/ml, PHA (1:500), controls 8737 ± 970): 13405 ± 6755 counts/minute | Lymphocyte Blastogenesis (mean counts/minute ± s.e.) (mouse lymphocyte; 1 mg/ml, PHA (1:750), controls 7686 ± 337): 10678 ± 5634 counts/minute | Lymphocyte Blastogenesis (mean counts/minute ± s.e.) (mouse lymphocyte; 10^-1 mg/ml, PHA (1:100)): 5258 ± 990 counts/minute | Lymphocyte Blastogenesis (mean counts/minute ± s.e.) (mouse lymphocyte; 10^-1 mg/ml, PHA (1:250)): 17378 ± 4352 counts/minute | Lymphocyte Blastogenesis (mean counts/minute ± s.e.) (mouse lymphocyte; 10^-1 mg/ml, PHA (1:500)): 19321 ± 2684 counts/minute | Lymphocyte Blastogenesis (mean counts/minute ± s.e.) (mouse lymphocyte; 10^-1 mg/ml, PHA (1:750)): 15791 ± 1829 counts/minute | Lymphocyte Blastogenesis (mean counts/minute ± s.e.) (mouse lymphocyte; 10^-2 mg/ml, PHA (1:100)): 3144 ± 500 counts/minute | Lymphocyte Blastogenesis (mean counts/minute ± s.e.) (mouse lymphocyte; 10^-2 mg/ml, PHA (1:250)): 10516 ± 2838 counts/minute | Lymphocyte Blastogenesis (mean counts/minute ± s.e.) (mouse lymphocyte; 10^-2 mg/ml, PHA (1:500)): 13794 ± 2855 counts/minute | Lymphocyte Blastogenesis (mean counts/minute ± s.e.) (mouse lymphocyte; 10^-2 mg/ml, PHA (1:750)): 10779 ± 1018 counts/minute | Lymphocyte Blastogenesis (mean counts/minute ± s.e.) (mouse lymphocyte; 10^-4 mg/ml, PHA (1:100)): 2123 ± 228 counts/minute | Lymphocyte Blastogenesis (mean counts/minute ± s.e.) (mouse lymphocyte; 10^-4 mg/ml, PHA (1:250)): 7971 ± 1113 counts/minute | Lymphocyte Blastogenesis (mean counts/minute ± s.e.) (mouse lymphocyte; 10^-4 mg/ml, PHA (1:500)): 10470 ± 1967 counts/minute | Lymphocyte Blastogenesis (mean counts/minute ± s.e.) (mouse lymphocyte; 10^-4 mg/ml, PHA (1:750)): 9678 ± 1005 counts/minute | Lymphocyte Blastogenesis (mean counts/minute ± s.e.) (mouse lymphocyte; 10^-6 mg/ml, PHA (1:100)): 2357 ± 155 counts/minute | Lymphocyte Blastogenesis (mean counts/minute ± s.e.) (mouse lymphocyte; 10^-6 mg/ml, PHA (1:250)): 7764 ± 912 counts/minute | Lymphocyte Blastogenesis (mean counts/minute ± s.e.) (mouse lymphocyte; 10^-6 mg/ml, PHA (1:500)): 11208 ± 1941 counts/minute | Lymphocyte Blastogenesis (mean counts/minute ± s.e.) (mouse lymphocyte; 10^-6 mg/ml, PHA (1:750)): 9164 ± 394 counts/minute | Lymphocyte Blastogenesis (mean counts/minute ± s.e.) (mouse lymphocyte; 10^-8 mg/ml, PHA (1:100)): 1884 ± 188 counts/minute
